Measured values reported in patent publication US7371742B2, “Porphyrin derivatives for photodynamic therapy” (Institut Curie, priority 2001, dated 2008).

Assays:
[1] = tested on: RBY-79 (indifferently named Y-79) cells; experiment: RBY-79 (Y79) cell cytotoxicity / photocytotoxicity; settings: IC50 with light/IC50 without light
[2] = tested on: human colic adenocarcinoma cell line HT29; experiment: HT29 cell survival (MTT assay) after 24 h incubation, with or without light irradiation; settings: IC50 with light/IC50 without light

Row | Molecule | IEff. Efficiency Index, Y79 [1] | IEff. Efficiency Index, HT 29 [2] | IEff. Efficiency Index, Y79 ([1]; listed as TPP(p-O-TEG-S-α-MannOH)3)
1 | 5,10,15-tri(para-O-diethyleneglycoloxyphenyl)-20-phenylporphyrin [Compound 75] | IEff = 0.27 | IEff = 0.66 | 
2 | 5,10,15-Tri(3-O-β-D-glucosylphenyl)-2,3-chlorin and 5,10,15-tri(3-O-β-D-glucosylphenyl)-7,8-chlorin [Compound 55] | IEff = 0.46 | IEff < 0.38 | 
3 | OC[C@H]1O[C@H](SCCOCCOc2ccc(-c3c4nc(c(-c5ccc(OCCOCCS[C@H]6O[C@H](CO)[C@@H](O)[C@H](O)[C@@H]6O)cc5)c5ccc([nH]5)c(-c5ccc(OCCOCCS[C@H]6O[C@H](CO)[C@@H](O)[C@H](O)[C@@H]6O)cc5)c5nc(c(-c6ccccc6)c6ccc3[nH]6)C=C5)C=C4)cc2)[C@@H](O)[C@@H](O)[C@@H]1O [Compound 68, TPP(p-O-DEG-S-α-Mann)3] |  | IEff < 0.2 | 
4 | TPP(p-OC3-S-β-GluOH)3 [Compound 23] | IEff < 0.65 | IEff = 0.85 | 
5 | OC[C@H]1O[C@@H](SCc2ccc(-c3c4nc(c(-c5ccc(CS[C@@H]6O[C@H](CO)[C@@H](O)[C@H](O)[C@H]6O)cc5)c5ccc([nH]5)c(-c5ccc(CS[C@@H]6O[C@H](CO)[C@@H](O)[C@H](O)[C@H]6O)cc5)c5nc(c(-c6ccc(CS[C@@H]7O[C@H](CO)[C@@H](O)[C@H](O)[C@H]7O)cc6)c6ccc3[nH]6)C=C5)C=C4)cc2)[C@H](O)[C@@H](O)[C@@H]1O [Compound 65, TPP(p-CH2-S-β-GluOH)4] |  | IEff < 0.52 | 
6 | O[C@@H]1[C@@H](O)[C@H](Sc2c(F)c(F)c(-c3c4nc(c(-c5c(F)c(F)c(S[C@@H]6OC[C@@H](O)[C@H](O)[C@H]6O)c(F)c5F)c5ccc([nH]5)c(-c5c(F)c(F)c(S[C@@H]6OC[C@@H](O)[C@H](O)[C@H]6O)c(F)c5F)c5nc(c(-c6c(F)c(F)c(S[C@@H]7OC[C@@H](O)[C@H](O)[C@H]7O)c(F)c6F)c6ccc3[nH]6)C=C5)C=C4)c(F)c2F)OC[C@H]1O [Compound 27, TPP F4(p-S-β-XylOH)4] |  | IEff < 0.5 | 
7 | porfimer sodium [Photofrin ®, reference compound] | IEff = 0.67 | IEff. = <0.5 | 
8 | Oc1ccc(-c2c3nc(c(-c4ccc(O)cc4)c4ccc([nH]4)c(-c4ccc(O)cc4)c4nc(c(-c5ccccc5)c5ccc2[nH]5)C=C4)C=C3)cc1 [TPP(p-OH)3, reference compound] | IEff < 0.1 | IEff < 0.1 | 
9 | TPC(m-O-β-GluOH)4 [Compound 54] | IEff = 0.77 | IEff < 0.3 | 
10 | OC[C@H]1O[C@H](SCc2ccc(-c3c4nc(c(-c5ccc(CS[C@H]6O[C@H](CO)[C@@H](O)[C@H](O)[C@@H]6O)cc5)c5ccc([nH]5)c(-c5ccc(CS[C@H]6O[C@H](CO)[C@@H](O)[C@H](O)[C@@H]6O)cc5)c5nc(c(-c6ccc(CS[C@H]7O[C@H](CO)[C@@H](O)[C@H](O)[C@@H]7O)cc6)c6ccc3[nH]6)C=C5)C=C4)cc2)[C@@H](O)[C@@H](O)[C@@H]1O [Compound 66, TPP(p-CH2-S-α-MannOH)4] | IEff = 0.54 | IEff = 0.5 | 
11 | O[C@@H]1[C@@H](O)[C@H](Sc2c(F)c(F)c(-c3c4nc(c(-c5c(F)c(F)c(S[C@@H]6OC[C@@H](O)[C@H](O)[C@H]6O)c(F)c5F)c5ccc([nH]5)c(-c5c(F)c(F)c(S[C@@H]6OC[C@@H](O)[C@H](O)[C@H]6O)c(F)c5F)c5nc(c(-c6c(F)c(F)c(F)c(F)c6F)c6ccc3[nH]6)C=C5)C=C4)c(F)c2F)OC[C@H]1O [Compound 28, TPP F4(p-S-β-XylOH)3] |  | IEff < 0.26 | 
12 | OC[C@H]1O[C@H](SCCOCCOCCOc2ccc(-c3c4nc(c(-c5ccc(OCCOCCOCCS[C@H]6O[C@H](CO)[C@@H](O)[C@H](O)[C@@H]6O)cc5)c5ccc([nH]5)c(-c5ccc(OCCOCCOCCS[C@H]6O[C@H](CO)[C@@H](O)[C@H](O)[C@@H]6O)cc5)c5nc(c(-c6ccccc6)c6ccc3[nH]6)C=C5)C=C4)cc2)[C@@H](O)[C@@H](O)[C@@H]1O [Compound 74, 5,10,15-tri(para-10-S-α-D-thiomanosyloxy-O-triethylene glycoloxyphenyl)-20-phenylporphyrin] | IEff = 0.05 | IEff = 0.46 | < 0,03
13 | OC[C@H]1O[C@@H](Sc2c(F)c(F)c(-c3c4nc(c(-c5c(F)c(F)c(S[C@@H]6O[C@H](CO)[C@@H](O)[C@H](O)[C@H]6O)c(F)c5F)c5ccc([nH]5)c(-c5c(F)c(F)c(S[C@@H]6O[C@H](CO)[C@@H](O)[C@H](O)[C@H]6O)c(F)c5F)c5nc(c(-c6c(F)c(F)c(S[C@@H]7O[C@H](CO)[C@@H](O)[C@H](O)[C@H]7O)c(F)c6F)c6ccc3[nH]6)C=C5)C=C4)c(F)c2F)[C@H](O)[C@@H](O)[C@@H]1O [Compound 25, TPP F4(p-S-β-GluOH)4] | IEff < 0.4 |  | 
14 | OC[C@H]1O[C@H](Sc2c(F)c(F)c(-c3c4nc(c(-c5c(F)c(F)c(S[C@H]6O[C@H](CO)[C@@H](O)[C@H](O)[C@@H]6O)c(F)c5F)c5ccc([nH]5)c(-c5c(F)c(F)c(S[C@H]6O[C@H](CO)[C@@H](O)[C@H](O)[C@@H]6O)c(F)c5F)c5nc(c(-c6c(F)c(F)c(S[C@H]7O[C@H](CO)[C@@H](O)[C@H](O)[C@@H]7O)c(F)c6F)c6ccc3[nH]6)C=C5)C=C4)c(F)c2F)[C@@H](O)[C@@H](O)[C@@H]1O [Compound 29, TPP F4(p-S-α-MannOH)4] | IEff < 0.33 | IEff < 0.24 | 
15 | OC[C@H]1O[C@@H](Oc2ccc(-c3c4nc(c(-c5ccc(O[C@@H]6O[C@H](CO)[C@@H](O)[C@H](O)[C@H]6O)cc5)c5ccc([nH]5)c(-c5ccc(O[C@@H]6O[C@H](CO)[C@@H](O)[C@H](O)[C@H]6O)cc5)c5nc(c(-c6ccc(O[C@@H]7O[C@H](CO)[C@@H](O)[C@H](O)[C@H]7O)cc6)c6ccc3[nH]6)C=C5)C=C4)cc2)[C@H](O)[C@@H](O)[C@@H]1O [TPP(p-O-β-GluOH)4, reference compound] | IEff = 0.74 |  | 
16 | TPP(p-OC3-S-α-MannOH)3 [Compound 24] | IEff = 0.62 | IEff = 1 | 
17 | O[C@@H]1[C@@H](O)[C@H](SCc2ccc(-c3c4nc(c(-c5ccc(CS[C@@H]6OC[C@@H](O)[C@H](O)[C@H]6O)cc5)c5ccc([nH]5)c(-c5ccc(CS[C@@H]6OC[C@@H](O)[C@H](O)[C@H]6O)cc5)c5nc(c(-c6ccc(CS[C@@H]7OC[C@@H](O)[C@H](O)[C@H]7O)cc6)c6ccc3[nH]6)C=C5)C=C4)cc2)OC[C@H]1O [Compound 64, TPP(p-CH2-S-β-XylOH)4] |  | IEff < 0.45 | 
18 | OC[C@H]1O[C@@H](Oc2ccc(-c3c4nc(c(-c5ccc(O[C@@H]6O[C@H](CO)[C@@H](O)[C@H](O)[C@H]6O)cc5)c5ccc([nH]5)c(-c5ccc(O[C@@H]6O[C@H](CO)[C@@H](O)[C@H](O)[C@H]6O)cc5)c5nc(c(-c6ccccc6)c6ccc3[nH]6)C=C5)C=C4)cc2)[C@H](O)[C@@H](O)[C@@H]1O [TPP(p-O-β-GluOH)3, reference compound] | IEff < 0.06 | IEff < 0.1 = | 
19 | TPP F4(p-S-β-GluOH)3 [Compound 26] | IEff < 0.22 | IEff = 0.26 | 
20 | Oc1cccc(-c2c3nc(c(-c4cccc(O)c4)c4ccc([nH]4)c(-c4cccc(O)c4)c4nc(c(-c5cccc(O)c5)c5ccc2[nH]5)CC4)C=C3)c1 [m-THPC, reference compound] | IEff < 0.06 | IEff < 0.08 | 
21 | Oc1ccc(-c2c3nc(c(-c4ccc(O)cc4)c4ccc([nH]4)c(-c4ccc(O)cc4)c4nc(c(-c5ccc(O)cc5)c5ccc2[nH]5)C=C4)C=C3)cc1 [TPP(p-OH)4, reference compound] | IEff = 0.06 | IEff. = 0.11 | 
